Paper PMC7129064
These are yes or no findings as the source states them, for the method shown. Binding seen in cells or lysates may run through a third protein. Here binding means that the protein was enriched with, or labelled near, the bait; the list need not be complete.

B1: CEP131 (protein, UniProt Q9UPN4 1-1083)
chain: MKGTRAIGSVPERSPAGVDLSLTGLPPPVSRRPGSAATTKPIVRSVSVVTGSEQKRKVLEATGPGGSQAINNLRRSNSTTQVSQPRSGSPRPTEPTDFLMLFEGSPSGKKRPASLSTAPSEKGATWNVLDDQPRGFTLPSNARSSSALDSPAGPRRKECTVALAPNFTANNRSNKGAVGNCVTTMVHNRYTPSERAPPLKSSNQTAPSLNNIIKAATCEGSESSGFGKLPKNVSSATHSARNNTGGSTGLPRRKEVTEEEAERFIHQVNQATVTIQRWYRHQVQRRGAGAARLEHLLQAKREEQRQRSGEGTLLDLHQQKEAARRKAREEKARQARRAAIQELQQKRALRAQKASTAERGPPENPRETRVPGMRQPAQELSPTPGGTAHQALKANNTGGGLPAAGPGDRCLPTSDSSPEPQQPPEDRTQDVLAQDAAGDNLEMMAPSRGSAKSRGPLEELLHTLQLLEKEPDVLPRPRTHHRGRYAWASEVTTEDDASSLTADNLEKFGKLSAFPEPPEDGTLLSEAKLQSIMSFLDEMEKSGQDQLDSQQEGWVPEAGPGPLELGSEVSTSVMRLKLEVEEKKQAMLLLQRALAQQRDLTARRVKETEKALSRQLQRQREHYEATIQRHLAFIDQLIEDKKVLSEKCEAVVAELKQEDQRCTERVAQAQAQHELEIKKLKELMSATEKARREKWISEKTKKIKEVTVRGLEPEIQKLIARHKQEVRRLKSLHEAELLQSDERASQRCLRQAEELREQLEREKEALGQQERERARQRFQQHLEQEQWALQQQRQRLYSEVAEERERLGQQAARQRAELEELRQQLEESSSALTRALRAEFEKGREEQERRHQMELNTLKQQLELERQAWEAGRTRKEEAWLLNREQELREEIRKGRDKEIELVIHRLEADMALAKEESEKAAESRIKRLRDKYEAELSELEQSERKLQERCSELKGQLGEAEGENLRLQGLVRQKERALEDAQAVNEQLSSERSNLAQVIRQEFEDRLAASEEETRQAKAELATLQARQQLELEEVHRRVKTALARKEEAVSSLRTQHEAAVKRADHLEELLEQHRRPTPSTK
B2: OFD1 (protein, UniProt O75665 1-1012)
chain: MMAQSNMFTVADVLSQDELRKKLYQTFKDRGILDTLKTQLRNQLIHELMHPVLSGELQPRSISVEGSSLLIGASNSLVADHLQRCGYEYSLSVFFPESGLAKEKVFTMQDLLQLIKINPTSSLYKSLVSGSDKENQKGFLMHFLKELAEYHQAKESCNMETQTSSTFNRDSLAEKLQLIDDQFADAYPQRIKFESLEIKLNEYKREIEEQLRAEMCQKLKFFKDTEIAKIKMEAKKKYEKELTMFQNDFEKACQAKSEALVLREKSTLERIHKHQEIETKEIYAQRQLLLKDMDLLRGREAELKQRVEAFELNQKLQEEKHKSITEALRRQEQNIKSFEETYDRKLKNELLKYQLELKDDYIIRTNRLIEDERKNKEKAVHLQEELIAINSKKEELNQSVNRVKELELELESVKAQSLAITKQNHMLNEKVKEMSDYSLLKEEKLELLAQNKLLKQQLEESRNENLRLLNRLAQPAPELAVFQKELRKAEKAIVVEHEEFESCRQALHKQLQDEIEHSAQLKAQILGYKASVKSLTTQVADLKLQLKQTQTALENEVYCNPKQSVIDRSVNGLINGNVVPCNGEISGDFLNNPFKQENVLARMVASRITNYPTAWVEGSSPDSDLEFVANTKARVKELQQEAERLEKAFRSYHRRVIKNSAKSPLAAKSPPSLHLLEAFKNITSSSPERHIFGEDRVVSEQPQVGTLEERNDVVEALTGSAASRLRGGTSSRRLSSTPLPKAKRSLESEMYLEGLGRSHIASPSPCPDRMPLPSPTESRHSLSIPPVSSPPEQKVGLYRRQTELQDKSEFSDVDKLAFKDNEEFESSFESAGNMPRQLEMGGLSPAGDMSHVDAAAAAVPLSYQHPSVDQKQIEEQKEEEKIREQQVKERRQREERRQSNLQEVLERERRELEKLYQERKMIEESLKIKIKKELEMENELEMSNQEIKDKSAHSENPLEKYMKIIQQEQDQESADKSSKKMVQEGSLVDTLQSSDKVESLTGFSHEELDDSW
B3: CEP85 (protein, UniProt Q6P2H3 1-762)
chain: MAMQEKYPTEGISHVTSPSSDVIQKGSSLGTEWQTPVISEPFRSRFSRCSSVADSGDTAIGTSCSDIAEDFCSSSGSPPFQPIKSHVTIPTAHVMPSTLGTSPAKPNSTPVGPSSSKLPLSGLAESVGMTRNGDLGAMKHSPGLSRDLMYFSGATGENGIEQSWFPAVGHERQEEARKFDIPSMESTLNQSAMMETLYSDPHHRVRFHNPRTSTSKELYRVLPEAKKAPGSGAVFERNGPHSNSSGVLPLGLQPAPGLSKPLPSQVWQPSPDTWHPREQSCELSTCRQQLELIRLQMEQMQLQNGAICHHPAAFGPSLPILEPAQWISILNSNEHLLKEKELLIDKQRKHISQLEQKVRESELQVHSALLGRPAPFGDVCLLRLQELQRENTFLRAQFAQKTEALSREKIDLEKKLSASEVEVQLIRESLKVALQKHSEEVKKQEERVKGRDKHINNLKKKCQKESEQNREKQQRIETLERYLADLPTLEDHQKQSQQLKDSELKSTELQEKVTELESLLEETQAICREKEIQLESLRQREAEFSSAGHSLQDKQSVEETSGEGPEVEMESWQKRYDSLQKIVEKQQQKMDQLRSQVQSLEQEVAQEEGTSQALREEAQRRDSALQQLRTAVKELSVQNQDLIEKNLTLQEHLRQAQPGSPPSPDTAQLALELHQELASCLQDLQAVCSIVTQRAQGHDPNLSLLLGIHSAQHPETQLDLQKPDVIKRKLEEVQQLRRDIEDLRTTMSDRYAQDMGENCVTQ
B4: CEP55 (protein, UniProt Q53EZ4 1-464)
chain: MSSRSTKDLIKSKWGSKPSNSKSETTLEKLKGEIAHLKTSVDEITSGKGKLTDKERHRLLEKIRVLEAEKEKNAYQLTEKDKEIQRLRDQLKARYSTTTLLEQLEETTREGERREQVLKALSEEKDVLKQQLSAATSRIAELESKTNTLRLSQTVAPNCFNSSINNIHEMEIQLKDALEKNQQWLVYDQQREVYVKGLLAKIFELEKKTETAAHSLPQQTKKPESEGYLQEEKQKCYNDLLASAKKDLEVERQTITQLSFELSEFRRKYEETQKEVHNLNQLLYSQRRADVQHLEDDRHKTEKIQKLREENDIARGKLEEEKKRSEELLSQVQFLYTSLLKQQEEQTRVALLEQQMQACTLDFENEKLDRQHVQHQLHVILKELRKARNQITQLESLKQLHEFAITEPLVTFQGETENREKVAASPKSPTAALNESLVECPKCNIQYPATEHRDLLVHVEYCSK
B5: CEP128 (protein, UniProt Q6ZU80 1-1094)
chain: MAESSSESDHFRCRDRLSPWAARSTHRGTRSLPTVEVTEKVNTITSTLQDTSRNLRQVDQMLGRYREYSNGQAGAIEHLKESLEQSIDQLRSQRLLRNSGGRSISVTSLSASDLDGGTGSELHHFPPTSPLKDYGDPQGIKRMRSRTGVRFVQETDDMTQLHGFHQSLRDLSSEQIRLGDDFNRELSRRSRSDAETKRALEELTEKLNEAQKQEVVSDRVERRLQELEREMRTERELVERRQDQLGLMSLQLQEALKKQEAKADEHEGAIKNKLRQTETEKNQLEQELELSRRLLNQSEGSRETLLHQVEELRTQLTKAEGDRKGLQHQVSQISKQQSNYQDEQGEDWRFRRGVEREKQDLEKQMSDLRVQLNFSAMASELEEVKRCMERKDKEKAHLASQVENLTRELENGEKQQLQMLDRLKEIQNHFDTCEAERKHADLQISELTRHAEDATKQAERYLSELQQSEALKEEAEKRREDLKLKAQESIRQWKLKHKKLERALEKQSETVDELTGKNNQILKEKDELKTQLYAALQQIENLRKELNDVLTKRALQEEELHSKEEKLRDIKSHQADLELEVKNSLDTIHRLESELKKQSKIQSQMKVEKAHLEEEIAELKKSQAQDKAKLLEMQESIKDLSAIRADLANKLAEEERAKKAVLKDLSDLTAQAKSRDEETATIITQLKLERDVHQRELKDLTSSLQSVKTKHEQNIQELMKHFKKEKSEAENHIRTLKAESLEEKNMAKIHRGQLEKLKSQCDRLTEELTQNENENKKLKLKYQCLKDQLEEREKHISIEEEHLRRMEEARLQLKDQLLCLETEQESILGVIGKEIDAACKTFSKDSVEKLKVFSSGPDIHYDPHRWLAESKTKLQWLCEELKERENREKNLRHQLMLCRQQLRNLTENKESELQCLFQQIERQEQLLDEIHREKRDLLEETQRKDEEMGSLQDRVIALETSTQVALDHLESVPEKLSLLEDFKDFRDSCSSSERTDGRYSKYRVRRNSLQHHQDDTKYRTKSFKGDRTFLEGSHTRGLDHSSSWQDHSRFLSSPRFSYVNSFTKRTVAPDSASNKEDATMNGTSSQPKKEEYGS

Biological target: V5-BirA*-SLAIN2
Assay: proximity labelling; BioID: HEK293T stably expressing V5-BirA*-SLAIN2, 50 uM biotin for 18 h, denaturing lysis (500 mM NaCl, 0.4% SDS, 2% Triton X-100), streptavidin agarose pull-down, on-bead digestion and mass spectrometry; three replicates; V5-BirA* alone as control (seven replicates)

| Binder | binding |
| --- | --- |
| B1 | binds |
| B2 | binds |
| B3 | binds |
| B4 | binds |
| B5 | binds |
